This is one part of the list.

Amino acid sequences for entries named in this document (tags omitted).
UniProt Q0JBA9, entry or part of it: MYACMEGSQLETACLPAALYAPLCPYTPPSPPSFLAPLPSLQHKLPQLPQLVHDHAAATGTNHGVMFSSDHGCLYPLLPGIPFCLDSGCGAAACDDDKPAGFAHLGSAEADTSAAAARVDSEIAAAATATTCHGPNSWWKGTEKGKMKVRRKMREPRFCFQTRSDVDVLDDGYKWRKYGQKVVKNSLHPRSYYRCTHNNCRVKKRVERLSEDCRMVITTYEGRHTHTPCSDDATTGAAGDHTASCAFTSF

In the test the target is OsWRKY34 (Oryza sativa, UniProt Q0JBA9 1-250). The test can be described thus: protein-binding microarray (RPBM); PBS, 2% BSA, 51.3 ng/ul salmon testes DNA, 50 uM zinc acetate, 200 nM TF, 25 C, 1 h; high values mean tight binding. The settings on record: protein: recombinant; tags: N-terminal polyhistidine and DsRed monomer fusion (pET32a); label: CyDye5-dUTP incorporated in the synthesized complementary strand; 3' TTTTT single-stranded linker to array surface; dsDNA, one strand shown. The method, boiled down: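 Polyhistidine-tagged DsRed fusions of transcription factors, joined at the N-terminus, were expressed in E. coli BL21-CodonPlus and isolated on Ni–NTA. They were incubated at 200 nM for 1 h at 25 °C on a custom Agilent array, double-stranded and BSA-blocked, in PBS with 2% BSA, salmon testes DNA and 50 µM zinc acetate. The binding signal is per-feature fluorescence intensity (arbitrary units) read on an Axon 4000B scanner after washing.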
For “GCATTTTAATCTCAGTTTAGTTGGAGGAGGTGGATATTTTCGGAGTCACCTAGTGCAG”, the binding signal was 8260 fluorescence intensity (a.u.). On to “TAGTAGTACCATTCTTAATTCCTCTATCGAGCTTTATTTCCGGAGTCACCTAGTGCAG”, for which the binding signal is 8620 fluorescence intensity (a.u.). Turning to “TATGCCCACGTTGGACGGAGCGGAGTTTGATTGCCCTATACGGAGTCACCTAGTGCAG”, the binding signal was 8910 fluorescence intensity (a.u.). For the sequence “CCAAACTCGTTGGCCGCCGCGCTCGCTTGCCGCTGCTCCGCGGAGTCACCTAGTGCAG”, the binding signal is 8360 fluorescence intensity (a.u.). For the sequence “GACTTCTTAGGTTACTTTGTTTTGGTTTAGGTAGCGCATTCGGAGTCACCTAGTGCAG”, the binding signal is 8930 fluorescence intensity (a.u.). Take “TGGGCATCGAGGGCGGGTACCGCGGGTTCTACGCGCGCAACGGAGTCACCTAGTGCAG”: the binding signal was 9880 fluorescence intensity (a.u.). With “TACATCGACAATATTGCACTTCATATCATTGCCTCAATCTCGGAGTCACCTAGTGCAG”, the binding signal was 11000 fluorescence intensity (a.u.). “ATCAGCCTATCACATGTTTTGTCTACCATTCCATTCCAAACGGAGTCACCTAGTGCAG”: the binding signal was 15900 fluorescence intensity (a.u.).

As to “ATCAGCTTACCATGTTCTTATTTCATTCCCTTTCCAATTACGGAGTCACCTAGTGCAG”, the binding signal was 10300 fluorescence intensity (a.u.). As for “AGCCCTCTTTCCTACATCTTGGGCTCCATATATCCCCAGTCGGAGTCACCTAGTGCAG”, the figure is 8870 fluorescence intensity (a.u.); as for “TCCTTGCTGGTGTTCGTGTTCCCATGATGAAGAAAATCCCCGGAGTCACCTAGTGCAG”, 8470 fluorescence intensity (a.u.); as for “CGCGTCTCTACTCGCTCCGCCGCGCCGTCGTCTCTCCCGACGGAGTCACCTAGTGCAG”, 9760 fluorescence intensity (a.u.).

For the sequence “GATGCTAATATTCTGGGTTGATATGTTGGTGAATGGTAATCGGAGTCACCTAGTGCAG”, the binding signal was 8880 fluorescence intensity (a.u.). For “TTTCCCGTTCCGCTCGGCGTCGGCTCCGACTCCGACGCCCCGGAGTCACCTAGTGCAG”, the binding signal was 8740 fluorescence intensity (a.u.). Consider “AGTTACATACTACACTATTAATACATGGTCCACCTGTCATCGGAGTCACCTAGTGCAG”, for which the binding signal was 8150 fluorescence intensity (a.u.). With “TTCCTCATTCTTTCCCTGCTGCAGTTCGGCCACGTCTACGCGGAGTCACCTAGTGCAG”, the binding signal is 8900 fluorescence intensity (a.u.). Turning to “CTGGGATTTGGTGGAGCTCCTGCGGTGGGGTGCCAGTGATCGGAGTCACCTAGTGCAG”, the binding signal is 12200 fluorescence intensity (a.u.). Regarding “GAGTTTCGCCGGTATTTTCTCACGGGTTCCGGCGCGGCGTCGGAGTCACCTAGTGCAG”, the binding signal was 9020 fluorescence intensity (a.u.). Consider “TTGCCTGTTCAAATTTTCTTTGTTGTGTCAGACGTATGCTCGGAGTCACCTAGTGCAG”, for which the binding signal is 8370 fluorescence intensity (a.u.). Turning to “TACTGAAATACCTCCACAATCTGCACTGTTGTCACCTACTCGGAGTCACCTAGTGCAG”, the binding signal was 9010 fluorescence intensity (a.u.). In the case of “GCATGCAGCCTACAAGAGATTGTAATATAGTATCGTTGTTCGGAGTCACCTAGTGCAG”, the binding signal is 8050 fluorescence intensity (a.u.). As for “GCCGCCGCCGACCACTCTCCTCCGCGTCCGCCTCGTCGCCCGGAGTCACCTAGTGCAG”, the binding signal is 8740 fluorescence intensity (a.u.).

“AGTGCTTGTTGGACTTGTGTCTGGTTCATTTATGCATAATCGGAGTCACCTAGTGCAG”: the binding signal is 11200 fluorescence intensity (a.u.).

These data come from PMC7819943, “Rice protein-binding microarrays: a tool to detect cis-acting elements near promoter regions in rice”.
